{"source": "PubChem BioAssay AID504793 | Drosophila RNAi Screening Center | 2011", "test": "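Whole-genome screen for parts of the DNA damage checkpoint at G2/M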 (primary screen)", "cells": "Drosophila S2R+ cells", "reagent": "long dsRNA against Drosophila genes, about 0.25 µg dsRNA per well", "duration": "4 days of dsRNA, then 4 hours of drug before read-out", "treatment": "doxorubicin 0.5 µM for 4 hours to cause double-strand breaks, in cells also given a low, harmless dose of dsRNA against nbs to sensitise the assay", "read-out": "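Per-well count of mitotic cells stained for phospho-histone H3 after doxorubicin exposure, used as mitotic index; counts are raw and not normalised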", "direction": "mitotic cells: higher = more cells in mitosis, weaker G2 arrest", "call rule": "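Genes are called active only when high mitotic counts were reproduced with independent dsRNAs and mitosis was checked for delay without damage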", "meaning of the calls": "active = confirmed in follow-up tests; inactive = not confirmed", "note": "The screen tested about 23,000 reagents; this is a random part of those with a known target gene and a result. Over the whole deposit, 62 (0.27%) are marked active. 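Calls come from follow-up tests whose scores are not deposited, so confirmed genes may have low counts here; counts are not normalised per plate.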 The raw values are shown without normalisation. Names joined by + are all predicted targets of the reagent. Reagent sequences are not shown."}
{"gene knocked down":"CG17567 (retired record)","dsRNA":"DRSC02627","mitotic cells, replicate 1":1,"activity call":"inactive"}
{"gene knocked down":"CG17567 (retired record)","dsRNA":"DRSC22537","mitotic cells, replicate 1":7,"activity call":"inactive"}
{"gene knocked down":"CG17567 (retired record)","dsRNA":"DRSC24938","mitotic cells, replicate 1":3,"activity call":"inactive"}
{"gene knocked down":"CG8236","dsRNA":"DRSC16399","mitotic cells, replicate 1":4,"activity call":"inactive"}
{"gene knocked down":"CG8236","dsRNA":"DRSC26321","mitotic cells, replicate 1":2,"activity call":"inactive"}
{"gene knocked down":"CG32278 + CG14963","dsRNA":"DRSC22203","mitotic cells, replicate 1":9,"activity call":"inactive"}
{"gene knocked down":"CR30029 (pseudo)","dsRNA":"DRSC06724","mitotic cells, replicate 1":9,"activity call":"inactive"}
{"gene knocked down":"snRNA:U1:95Cc (small nuclear RNA U1 at 95C c)","dsRNA":"DRSC13640","mitotic cells, replicate 1":23,"activity call":"inactive"}
{"gene knocked down":"Pfk (Phosphofructokinase)","dsRNA":"DRSC07506","mitotic cells, replicate 1":10,"activity call":"inactive"}
{"gene knocked down":"Pfk (Phosphofructokinase)","dsRNA":"DRSC27413","mitotic cells, replicate 1":9,"activity call":"inactive"}
{"gene knocked down":"Mondo","dsRNA":"DRSC02668","mitotic cells, replicate 1":13,"activity call":"inactive"}
{"gene knocked down":"Mondo","dsRNA":"DRSC22006","mitotic cells, replicate 1":6,"activity call":"inactive"}
{"gene knocked down":"Mondo","dsRNA":"DRSC26287","mitotic cells, replicate 1":5,"activity call":"inactive"}

Next part; the last 2 above are carried over.
{"gene knocked down":"Mondo","dsRNA":"DRSC22006","mitotic cells, replicate 1":6,"activity call":"inactive"}
{"gene knocked down":"Mondo","dsRNA":"DRSC26287","mitotic cells, replicate 1":5,"activity call":"inactive"}
{"gene knocked down":"CHES-1-like (Checkpoint suppressor 1-like)","dsRNA":"DRSC18447","mitotic cells, replicate 1":19,"activity call":"inactive"}
{"gene knocked down":"mbo (members only)","dsRNA":"DRSC16123","mitotic cells, replicate 1":4,"activity call":"inactive"}
{"gene knocked down":"Pph13 (PvuII-PstI homology 13)","dsRNA":"DRSC23162","mitotic cells, replicate 1":10,"activity call":"inactive"}
{"gene knocked down":"Pph13 (PvuII-PstI homology 13)","dsRNA":"DRSC29483","mitotic cells, replicate 1":7,"activity call":"inactive"}
{"gene knocked down":"TwdlX (TweedleX)","dsRNA":"DRSC19151","mitotic cells, replicate 1":32,"activity call":"inactive"}
{"gene knocked down":"TwdlX (TweedleX)","dsRNA":"DRSC29528","mitotic cells, replicate 1":6,"activity call":"inactive"}
{"gene knocked down":"CG6403","dsRNA":"DRSC16033","mitotic cells, replicate 1":14,"activity call":"inactive"}
{"gene knocked down":"CG2898","dsRNA":"DRSC18238","mitotic cells, replicate 1":11,"activity call":"inactive"}
{"gene knocked down":"Miox (Myo-inositol oxygenase)","dsRNA":"DRSC10747","mitotic cells, replicate 1":5,"activity call":"inactive"}
{"gene knocked down":"Miox (Myo-inositol oxygenase)","dsRNA":"DRSC24306","mitotic cells, replicate 1":6,"activity call":"inactive"}
{"gene knocked down":"Edem1 (ER degradation enhancer, mannosidase alpha-like 1)","dsRNA":"DRSC18573","mitotic cells, replicate 1":7,"activity call":"inactive"}
{"gene knocked down":"Vhl (von Hippel-Lindau)","dsRNA":"DRSC07716","mitotic cells, replicate 1":7,"activity call":"inactive"}
{"gene knocked down":"Vhl (von Hippel-Lindau)","dsRNA":"DRSC28332","mitotic cells, replicate 1":6,"activity call":"inactive"}
{"gene knocked down":"Pif1 (Pif1 DNA helicase)","dsRNA":"DRSC00582","mitotic cells, replicate 1":4,"activity call":"inactive"}
{"gene knocked down":"RpL23A (Ribosomal protein L23A)","dsRNA":"DRSC08694","mitotic cells, replicate 1":7,"activity call":"inactive"}
{"gene knocked down":"RpL23A (Ribosomal protein L23A)","dsRNA":"DRSC22035","mitotic cells, replicate 1":7,"activity call":"inactive"}
{"gene knocked down":"RpL23A (Ribosomal protein L23A)","dsRNA":"DRSC25828","mitotic cells, replicate 1":4,"activity call":"inactive"}
{"gene knocked down":"5-HT1B (5-hydroxytryptamine (serotonin) receptor 1B)","dsRNA":"DRSC05031","mitotic cells, replicate 1":4,"activity call":"inactive"}
{"gene knocked down":"5-HT1B (5-hydroxytryptamine (serotonin) receptor 1B)","dsRNA":"DRSC05769","mitotic cells, replicate 1":1,"activity call":"inactive"}
{"gene knocked down":"5-HT1B (5-hydroxytryptamine (serotonin) receptor 1B)","dsRNA":"DRSC25996","mitotic cells, replicate 1":2,"activity call":"inactive"}
{"gene knocked down":"Z600","dsRNA":"DRSC11317","mitotic cells, replicate 1":3,"activity call":"inactive"}
